The values that follow come from PubChem BioAssay (EPA / NIEHS).

Chains of the proteins cited; added tags and fusions are not shown. Lines headed by an entry give the natural chain unless they say otherwise; changes in a name come on top.
UniProt P11712, whole entry, looked up: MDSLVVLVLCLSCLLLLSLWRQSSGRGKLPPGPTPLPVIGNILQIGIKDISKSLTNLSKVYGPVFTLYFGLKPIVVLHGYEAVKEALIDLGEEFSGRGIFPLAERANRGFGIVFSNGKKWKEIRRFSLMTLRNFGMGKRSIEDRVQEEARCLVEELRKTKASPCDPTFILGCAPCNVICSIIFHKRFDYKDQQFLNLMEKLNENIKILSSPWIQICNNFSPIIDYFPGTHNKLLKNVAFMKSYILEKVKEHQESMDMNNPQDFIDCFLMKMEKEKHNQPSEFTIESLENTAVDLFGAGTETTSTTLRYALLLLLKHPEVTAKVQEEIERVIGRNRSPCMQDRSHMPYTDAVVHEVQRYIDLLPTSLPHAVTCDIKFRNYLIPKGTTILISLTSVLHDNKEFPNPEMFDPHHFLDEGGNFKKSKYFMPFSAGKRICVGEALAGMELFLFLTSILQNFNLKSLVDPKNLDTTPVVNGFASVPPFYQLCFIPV
UniProt P56817: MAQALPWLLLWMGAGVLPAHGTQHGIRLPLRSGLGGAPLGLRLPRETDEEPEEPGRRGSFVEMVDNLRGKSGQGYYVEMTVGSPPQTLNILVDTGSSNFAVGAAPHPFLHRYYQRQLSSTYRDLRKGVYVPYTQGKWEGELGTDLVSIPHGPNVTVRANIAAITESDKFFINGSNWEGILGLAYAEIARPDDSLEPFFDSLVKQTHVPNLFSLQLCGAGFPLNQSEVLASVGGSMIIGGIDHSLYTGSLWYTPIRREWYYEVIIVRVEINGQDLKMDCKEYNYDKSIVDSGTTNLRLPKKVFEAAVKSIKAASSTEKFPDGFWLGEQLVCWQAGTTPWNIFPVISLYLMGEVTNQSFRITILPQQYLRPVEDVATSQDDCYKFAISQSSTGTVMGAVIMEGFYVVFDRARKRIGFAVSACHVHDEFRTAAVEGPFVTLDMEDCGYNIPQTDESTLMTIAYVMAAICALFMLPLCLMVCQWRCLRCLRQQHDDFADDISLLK
UniProt P17948, whole entry, looked up: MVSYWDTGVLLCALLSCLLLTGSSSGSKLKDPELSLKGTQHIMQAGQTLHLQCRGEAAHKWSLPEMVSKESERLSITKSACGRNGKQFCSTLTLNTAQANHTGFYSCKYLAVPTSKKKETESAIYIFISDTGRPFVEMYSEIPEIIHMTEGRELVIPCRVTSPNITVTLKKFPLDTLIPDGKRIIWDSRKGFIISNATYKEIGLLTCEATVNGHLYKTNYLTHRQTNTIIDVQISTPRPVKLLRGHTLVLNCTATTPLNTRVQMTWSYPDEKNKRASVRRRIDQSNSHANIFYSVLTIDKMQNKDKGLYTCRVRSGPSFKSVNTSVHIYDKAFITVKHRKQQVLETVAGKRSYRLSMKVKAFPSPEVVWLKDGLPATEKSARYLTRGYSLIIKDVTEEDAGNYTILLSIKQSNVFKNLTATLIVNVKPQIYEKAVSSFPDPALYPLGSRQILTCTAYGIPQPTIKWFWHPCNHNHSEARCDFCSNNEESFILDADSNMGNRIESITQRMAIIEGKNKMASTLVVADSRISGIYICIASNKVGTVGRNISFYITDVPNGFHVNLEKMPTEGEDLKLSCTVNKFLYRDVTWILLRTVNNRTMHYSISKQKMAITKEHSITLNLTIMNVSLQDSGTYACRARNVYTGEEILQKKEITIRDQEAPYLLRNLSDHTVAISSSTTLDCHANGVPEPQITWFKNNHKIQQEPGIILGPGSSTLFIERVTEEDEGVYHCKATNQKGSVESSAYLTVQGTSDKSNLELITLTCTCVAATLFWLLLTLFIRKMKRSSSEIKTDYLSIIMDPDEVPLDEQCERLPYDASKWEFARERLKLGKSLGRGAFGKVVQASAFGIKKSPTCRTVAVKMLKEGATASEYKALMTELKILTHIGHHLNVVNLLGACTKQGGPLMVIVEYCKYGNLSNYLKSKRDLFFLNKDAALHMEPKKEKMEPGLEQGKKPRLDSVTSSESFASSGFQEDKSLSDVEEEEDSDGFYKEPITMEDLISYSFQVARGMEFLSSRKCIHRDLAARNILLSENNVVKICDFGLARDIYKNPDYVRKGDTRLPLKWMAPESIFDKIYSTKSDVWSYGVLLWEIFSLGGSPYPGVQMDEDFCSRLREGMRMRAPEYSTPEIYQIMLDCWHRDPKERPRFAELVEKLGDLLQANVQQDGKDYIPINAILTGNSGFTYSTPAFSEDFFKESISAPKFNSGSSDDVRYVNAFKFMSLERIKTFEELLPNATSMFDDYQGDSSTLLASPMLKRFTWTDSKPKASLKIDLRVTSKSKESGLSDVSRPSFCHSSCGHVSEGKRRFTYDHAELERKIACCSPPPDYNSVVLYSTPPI
UniProt P35372, whole entry, looked up: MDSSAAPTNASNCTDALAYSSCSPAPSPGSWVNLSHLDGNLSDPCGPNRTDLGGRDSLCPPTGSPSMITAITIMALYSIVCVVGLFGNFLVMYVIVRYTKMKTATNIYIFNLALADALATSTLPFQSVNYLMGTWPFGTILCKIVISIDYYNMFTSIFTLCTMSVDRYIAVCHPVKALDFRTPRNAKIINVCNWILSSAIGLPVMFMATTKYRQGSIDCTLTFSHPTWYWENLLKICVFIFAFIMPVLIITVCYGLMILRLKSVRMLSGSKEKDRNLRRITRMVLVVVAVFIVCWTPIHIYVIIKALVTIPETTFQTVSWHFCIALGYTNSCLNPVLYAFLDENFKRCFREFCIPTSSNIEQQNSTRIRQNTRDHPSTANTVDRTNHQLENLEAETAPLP
UniProt O70528: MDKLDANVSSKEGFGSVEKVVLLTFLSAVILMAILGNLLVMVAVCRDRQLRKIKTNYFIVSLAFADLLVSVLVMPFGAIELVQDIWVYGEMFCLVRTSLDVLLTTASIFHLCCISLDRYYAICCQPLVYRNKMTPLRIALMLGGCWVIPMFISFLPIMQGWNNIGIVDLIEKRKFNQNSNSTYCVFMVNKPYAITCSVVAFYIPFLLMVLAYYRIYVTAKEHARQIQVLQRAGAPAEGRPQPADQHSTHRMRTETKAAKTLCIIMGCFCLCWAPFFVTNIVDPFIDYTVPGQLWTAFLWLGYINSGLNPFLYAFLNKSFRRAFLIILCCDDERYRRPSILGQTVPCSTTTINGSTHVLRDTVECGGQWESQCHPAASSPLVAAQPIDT
UniProt P22909, whole entry, looked up: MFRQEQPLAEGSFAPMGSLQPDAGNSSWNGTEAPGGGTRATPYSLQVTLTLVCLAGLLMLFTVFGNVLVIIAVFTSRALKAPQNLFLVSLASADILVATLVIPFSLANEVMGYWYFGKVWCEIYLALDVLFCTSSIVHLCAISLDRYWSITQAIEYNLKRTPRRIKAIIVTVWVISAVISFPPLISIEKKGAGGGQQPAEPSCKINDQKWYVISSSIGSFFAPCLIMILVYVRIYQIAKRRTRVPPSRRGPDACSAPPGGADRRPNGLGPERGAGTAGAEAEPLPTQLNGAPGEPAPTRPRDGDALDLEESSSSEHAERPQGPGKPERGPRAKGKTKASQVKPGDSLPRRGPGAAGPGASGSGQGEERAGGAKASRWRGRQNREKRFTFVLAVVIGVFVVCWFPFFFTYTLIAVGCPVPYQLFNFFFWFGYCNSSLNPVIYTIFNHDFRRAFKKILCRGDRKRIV
UniProt P28646: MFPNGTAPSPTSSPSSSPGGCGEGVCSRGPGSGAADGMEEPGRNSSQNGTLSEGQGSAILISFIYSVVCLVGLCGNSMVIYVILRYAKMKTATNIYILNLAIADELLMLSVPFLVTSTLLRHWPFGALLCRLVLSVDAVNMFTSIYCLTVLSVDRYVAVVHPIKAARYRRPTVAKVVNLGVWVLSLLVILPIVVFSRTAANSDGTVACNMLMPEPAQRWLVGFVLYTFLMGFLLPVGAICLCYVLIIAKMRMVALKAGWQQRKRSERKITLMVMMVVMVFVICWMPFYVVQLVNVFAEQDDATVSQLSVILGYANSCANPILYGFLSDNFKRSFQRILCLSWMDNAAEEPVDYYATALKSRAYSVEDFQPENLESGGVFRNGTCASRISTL

Each structure is given as a SMILES string. Values joined by “and” are separate entries in the source; they are usually repeats but may differ in a detail not shown here. Equal entries are not always repeated. For some assays here: Shown are results outside the selection of hits, which stands elsewhere. Inconclusive results are not listed. Some compounds were tested as several samples or in several runs, with calls that do not always agree. Only a part is listed here, and it is no random draw. Active and inactive are the calls of the source. Rule for the calls, unless noted: active = hit-call score of the fitted dose curve at least 0.9, where 1 is the maximum; inactive = score below 0.9.

Read-out in experiment [1]: Pselectin, SELP (gene 6403)
Nature of the experiment: BSK_4H_Pselectin: BioMAP Diversity Plus: 4H Assay for Pselectin Biomarker Activity (AID 2283026). As to conditions: actives raise or lower the signal; primary human endothelial cells (HUVEC). Summed up:
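Primary human umbilical vein endothelial cells were treated 24 h, and cell-surface P-selectin was then quantified by ELISA. Bidirectional fit versus DMSO; cytotoxicity checked in parallel cultures by SRB total-protein staining.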

Experiment [2] in a line: BSK_BE3C_SRB: Viability Assessment in the BioMAP Diversity Plus: BE3C Assay (AID 2283028). The note with it: primary human bronchial epithelial cells. Summed up:
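SRB total-protein staining (0.1%, after TCA fixation) of chemically dosed human bronchial epithelial primary cells at 24 h; DMSO serves as the negative control for bidirectional curve fitting.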

Read-out in experiment [3]: Vascular endothelial growth factor receptor 2 (Homo sapiens) (UniProt P35968)
Nature of the experiment: BSK_4H_VEGFRII: BioMAP Diversity Plus: 4H Assay for Vascular endothelial growth factor receptor 2 (VEGFR2) Biomarker Activity (AID 2283031). The note with it: actives raise or lower the signal; primary human endothelial cells (HUVEC). Summed up:
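In this multiplexed HUVEC system, biomarker ELISA was performed after 24 h chemical exposure. Parallel SRB staining (TCA fixation, 560 nm) tracked cytotoxicity; DMSO served as baseline.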

Read-out in experiment [4]: Monokine induced gamma interferon (MIG), CXCL9 (gene 4283)
Briefly: BSK_BE3C_MIG: BioMAP Diversity Plus: BE3C Assay for Monokine induced gamma interferon (MIG) Biomarker Activity (AID 2283035).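 Note: MIG protein measured by ELISA in BE3C cultures after 24 h of dosing.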 As to conditions: actives raise or lower the signal; primary human bronchial epithelial cells. Summed up:
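Primary human bronchial epithelial cells treated for 24 h; MIG levels measured by ELISA, fitted bidirectionally versus DMSO. Parallel SRB total-protein staining assessed cytotoxicity.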

Read-out in experiment [5]: Plasminogen activator inhibitor-1 (PAI1), SERPINE1 (gene 5054)
Nature of the experiment: BSK_BE3C_PAI1: BioMAP Diversity Plus: BE3C Assay for Plasminogen activator inhibitor-1 (PAI1) Biomarker Activity (AID 2283037). The note with it: actives raise or lower the signal; primary human bronchial epithelial cells. Summed up: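 Primary human bronchial epithelial cells (BE3C system) exposed 24 h; PAI-1 quantified by ELISA. Parallel sulforhodamine B staining of total protein flags cytotoxicity. Bidirectional fit versus DMSO.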

Read-out in experiment [6]: Interleukin-8 (IL8), CXCL8 (gene 3576)
Briefly: BSK_CASM3C_IL8: BioMAP Diversity Plus: CASM3C Assay for Interleukin-8 (IL8) Biomarker Activity (AID 2283042).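 Note: IL-8 protein level quantified by ELISA.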 As to conditions: actives raise or lower the signal; primary human coronary artery smooth muscle cells.

Read-out in experiment [7]: Human Leukocyte Antigen - DR isotype (HLADR), HLA-DRA (gene 3122)
Nature of the experiment: BSK_CASM3C_HLADR: BioMAP Diversity Plus: CASM3C Assay for Human Leukocyte Antigen - DR isotype (HLADR) Biomarker Activity (AID 2283043).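 Note: cell-surface HLA-DR protein level quantified by ELISA.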 As to conditions: actives raise or lower the signal; primary human coronary artery smooth muscle cells.

The nature of experiment [8]: BSK_CASM3C_Proliferation: Cell Proliferation Assessment in the BioMAP Diversity Plus: CASM3C Assay (AID 2283047).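 Note: sulforhodamine B total protein stain as relative cell number at 560 nm; sub-confluent cells exposed 48 h before staining; fitted both ways against DMSO so gain or loss of cell number.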 As to conditions: primary human coronary artery smooth muscle cells.
The nature of experiment [9]: BSK_hDFCGF_Proliferation: Cell Proliferation Assessment in the BioMAP Diversity Plus: hDFCGF Assay (AID 2283059).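 Note: curves fitted for both rise and fall of signal versus DMSO baseline.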 As to conditions: primary human foreskin fibroblasts. Summed up:
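Steps: dose primary human dermal fibroblasts (foreskin); […] fix in 10% TCA; stain with 0.1% SRB; read 560 nm; fit gain or loss of signal against DMSO.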

Read-out in experiment [10]: Intercellular Adhesion Molecule 1 (ICAM1), ICAM1 (gene 3383)
Nature of the experiment: BSK_KF3CT_ICAM1: BioMAP Diversity Plus: KF3CT Assay for Intercellular Adhesion Molecule 1 (ICAM1) Biomarker Activity (AID 2283067). The note with it: actives raise or lower the signal; primary human keratinocytes with fibroblasts. Summed up:
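Bidirectional curve fitting against a DMSO baseline was applied to ICAM-1 ELISA signal from primary human skin co-cultures harvested 24 h after treatment, with SRB staining of parallel wells for overt cytotoxicity.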

Read-out in experiment [11]: Transforming growth factor beta 1 (TGFb1), TGFB1 (gene 7040)
Briefly: BSK_KF3CT_TGFb1: BioMAP Diversity Plus: KF3CT Assay for Transforming growth factor beta 1 (TGFb1) Biomarker Activity (AID 2283072). As to conditions: actives raise or lower the signal; primary human keratinocytes with fibroblasts. Summed up:
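Human keratinocyte/foreskin fibroblast co-culture; TGF-b1 measured by ELISA 24 h after dosing, fitted bidirectionally versus DMSO. Cytotoxicity checked in parallel cultures by total protein (SRB staining, 560 nm).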

Read-out in experiment [12]: Vascular cell adhesion molecule 1 (VCAM1), VCAM1 (gene 7412)
Briefly: BSK_LPS_VCAM1: BioMAP Diversity Plus: LPS Assay for Vascular cell adhesion molecule 1 (VCAM1) Biomarker Activity (AID 2283086). As to conditions: actives raise or lower the signal; primary human HUVEC with PBMC. Summed up: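 Human umbilical vein endothelial cells co-cultured with PBMC and stimulated with LPS; VCAM-1 measured by ELISA 24 h after dosing. Bidirectional curve fitting against DMSO baseline; cytotoxicity tracked in parallel by SRB total-protein staining.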

The nature of experiment [13]: BSK_SAg_PBMCCytotoxicity: PBMC Cytotoxicity Assessment in the BioMAP Diversity Plus: SAg Assay (AID 2283093).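 Note: PBMC viability measured as Alamar Blue reduction fluorescence at 546/580 nm; fitted both ways against DMSO so a hit may be loss or gain of signal.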 The note with it: primary human HUVEC with PBMC. Summed up:
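HUVEC/PBMC co-culture; PBMC exposed to chemical 1 h before SEB and TSST-1 activation (20 ng/mL each), incubated 90 h, then Alamar Blue 6 h, fluorescence 546/580 nm. Bidirectional fit versus DMSO baseline.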

The target in experiment [14] is human CYP2C9, CYP2C9 (gene 1559) (UniProt P11712). Briefly: NVS_ADME_hCYP2C9: NovaScreen (NVS) CYP450-related Enzyme Activity (ADME) Assay for human CYP2C9 (AID 2283108; active = hit-call score of the fitted dose curve at least 0.9, where 1 is the maximum). Summed up:
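Recombinant human CYP2C9 expressed in SF9 cells, fluorogenic substrate, fluorescence read 0.75 h after dosing. Chemicals first run in duplicate at 10 uM, with actives followed in concentration series; loss of signal versus acetonitrile baseline.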

In experiment [15] the target is human Beta-secretase (BACE), BACE1 (gene 23621) (UniProt P56817). Nature of the experiment: NVS_ENZ_hBACE: NovaScreen (NVS) Enzymatic Assay for human Beta-secretase (BACE) (AID 2283140; active = hit-call score of the fitted dose curve at least 0.9, where 1 is the maximum;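 note: hits are inhibitors that reduce fluorescent substrate signal versus DMSO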).
In experiment [16] the target is human Vascular Endothelial Growth Factor Receptor 1 (VEGFR1), FLT1 (gene 2321) (UniProt P17948). Nature of the experiment: NVS_ENZ_hVEGFR1: NovaScreen (NVS) Enzymatic Assay for human Vascular Endothelial Growth Factor Receptor 1 (VEGFR1) (AID 2283226; active = hit-call score of the fitted dose curve at least 0.9, where 1 is the maximum).
Experiment [17] concerns the target human Opioid Receptor Mu (Opiate Mu), OPRM1 (gene 4988) (UniProt P35372). Briefly: NVS_GPCR_hOpiate_mu: NovaScreen (NVS) G Protein-Coupled Receptor Assay for human Opioid Receptor Mu (Opiate Mu) (AID 2283290; active = hit-call score of the fitted dose curve at least 0.9, where 1 is the maximum;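 note: hits lower bound tracer signal versus DMSO meaning displacement of the ligand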). Summed up:
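CHO-derived receptor protein, cell-free; radioligand displacement, filtration + scintillation counting, read at 2.5 h. DMSO = negative control/baseline. Primary: 25 uM single conc, duplicate; secondary: concentration series.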

Experiment [18] concerns the target guinea pig Serotonin, 5-Hydroxytryptamine Receptor 4 (5HT4), HTR4 (gene 100135548) (UniProt O70528). Briefly: NVS_GPCR_g5HT4: NovaScreen (NVS) G Protein-Coupled Receptor Assay for guinea pig Serotonin, 5-Hydroxytryptamine Receptor 4 (5HT4) (AID 2283294; active = hit-call score of the fitted dose curve at least 0.9, where 1 is the maximum).
The target of experiment [19] is rat Adrenergic Receptor, Alpha 2 (Adra2), Non-selective Binding, Adra2a (gene 25083) (UniProt P22909). Briefly: NVS_GPCR_rAdra2_NonSelective: NovaScreen (NVS) G Protein-Coupled Receptor Assay for rat Adrenergic Receptor, Alpha 2 (Adra2), Non-selective Binding (AID 2283299; active = hit-call score of the fitted dose curve at least 0.9, where 1 is the maximum). Summed up:
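Rat cortical membranes, radioligand competitive displacement read by filter-based scintillation counting 1.25 hours after dosing. Primary screen in duplicate at 25 uM; actives followed up in concentration series.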

In experiment [20] the target is rat Somatostatin Receptor (SST), Sstr1 (gene 25033) (UniProt P28646). Briefly: NVS_GPCR_rSST: NovaScreen (NVS) G Protein-Coupled Receptor Assay for rat Somatostatin Receptor (SST) (AID 2283314; active = hit-call score of the fitted dose curve at least 0.9, where 1 is the maximum). Summed up: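 Rat forebrain membranes; radioligand displacement read by filter-based scintillation counting 1 h after dosing. Primary screen in duplicate at 25 uM. Actives (e.g., 30% inhibition) were rerun as concentration-response to 50 uM max and fitted against DMSO.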

On to `S=C(S)NCCNC(=S)S.[Mn+2].[S-]C([S-])=NCCN=C([S-])[S-].[Zn+2]`, for which the outcome in experiment [1], in experiment [2], in [3], in experiment [4], in experiment [5] and in experiment [6] was inactive. The outcome in experiment [7], in experiment [8], in experiment [10], in experiment [11], in experiment [13] and in [17] was inactive. Also, the compound was called inactive in experiment [18]. The concentration at half-maximal activity (AC50) (as a rule, the concentration giving half of the maximal activity seen) is active: 12.8 µM in [9]; active: 10 µM and active: 13.4 µM in [12]; active: 1.79 µM in experiment [14]; active: 15.5 µM in experiment [15]; active: 16.5 µM in experiment [16]; active: 16.8 µM in experiment [19]. Moreover, in [20], the AC50 is active: 10.1 µM.
